{
  "source": "patent US11517630B2",
  "about": "“Methods and compositions for regulating gene expression” (Children's Medical Center Corporation, priority 2005, dated 2022)",
  "key": {"[1]": {"system": "mutant Apo CII-luc in murine lung tissue", "test": "In vivo luc induction in murine lung after intratracheal delivery of lentiviral vector, bioluminescent imaging", "set-up": "species or system mice", "conditions": "1.5 mg daily, 4 days", "procedure": "For intratracheal infections, nude mice were anaesthesized and then 100 μl of concentrated virus was delivered upon normal inhalation via a blunt-ended 16-gauge needle inserted in such a way to depress the tongue.\nPrior to imaging, mice were anaesthesized and injected with 150 μl luciferin (30 mg/ml) (Xenagen, Alameda, Calif.). A series of bioluminescent images were then taken for up to 30 minutes using the Xenogen IVIS imager. Photon output was quantified at the plateau of the time-course using the Living Image software. Induction in fold was calculated based on the photon output in the animals before and after drug treatment.\nTo further establish the general applicability of the gene […] system, we next asked whether gene regulation at the level of translation could be readily accomplished in the in vivo setting. In a first animal model, intratracheal delivery (see Materials and Methods) of a lentiviral vector carrying WT or mutant Apo CII-luc sequences was utilized in order to assess the ability to regulate luc expression in murine lung tissue via aminoglycoside administration. Five days post transduction, prior to administration of aminoglycoside, mice were imaged for luc expression using the Xenogen IVIS non-invasive bioluminescent imager (29). […]"}, "[2]": {"system": "human growth hormone gene (hGH) with translation termination codons", "test": "Induction of human growth hormone expression and secretion measured by ELISA (FIG. 4)", "type": "cell-based"}},
  "note": "At least one structure is not confirmed: it was looked up by name or label, or the drawing left a doubt.",
  "data": [
    {"smiles": "CN[C@@H]1[C@@H](O)[C@@H](O[C@@H]2[C@@H](O)[C@H](O[C@H]3O[C@H]([C@@H](C)O)[C@@H](O)[C@H](O)[C@H]3N)[C@@H](N)C[C@H]2N)OC[C@]1(C)O", "note": "[G418]", "values": [
      {"measurement": "induction of luciferase activity in mutant luc mice (lung)", "setting": "[1]", "value": "significant induction of luciferase activity"},
      {"measurement": "induction of hGH gene expression / secretion of hGH protein", "setting": "[2]", "value": "effectively induces gene expression"}
    ]}
  ]
}
